Results deposited as PubChem BioAssay AID743454 (Peter MacCallum Cancer Centre, 2014)

- Test: 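Search for knock-downs that restore vorinostat killing in resistant colon cancer cells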 (primary screen)
- System: human HCT116-VR colon cancer cells, selected for vorinostat resistance
- Reagents: siRNA pool against human genes, 40 nM siRNA pool
- Duration: vorinostat for 24 h, read-out about 72 h after transfection
- Treatment: vorinostat at 2.5 µM final
- Measurement: 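Cell viability by CellTiter-Fluor and caspase 3/7 activity by luminescence, each scaled to mock wells per plate, duplicates averaged, then robust z-scored over all plates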
- Reading the numbers: viability robust z-score: higher = more viable cells than screen typical; caspase robust z-score: higher = more caspase 3/7 activity than screen typical
- Active means: 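Hits are knock-downs in viability class RV1/RV2 or caspase class CA1/CA2, excluding ones that killed cells in the no-drug cell-count arm; hits then retested with single siRNAs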
The whole screen tested about 18,000 reagents; below is an unselected part. In the full data, 450 (2.5%) got an active call. 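Single biological run; no consistent viability z cut-off exists, so the class columns, not z-scores, define the calls.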

no.	Gene	viability hit class	caspase hit class	viability robust z-score	caspase robust z-score	activity call
1	IL23A (GeneID 51561)	no change	no change	0.97	0.18	inactive
2	DMRTC1B (GeneID 728656)	no change	no change	0.12	1.73	inactive
3	SERPINB8 (GeneID 5271)	no change	no change	-0.27	-0.82	inactive
4	KRT6A (GeneID 3853)	no change	no change	-0.35	-0.04	inactive
5	MAGEA1 (GeneID 4100)	no change	no change	-0.05	1.06	inactive
6	RHOV (GeneID 171177)	no change	no change	0.74	-0.74	inactive
7	ADH6 (GeneID 130)	no change	no change	-0.08	-0.02	inactive
8	TNFRSF14 (GeneID 8764)	no change	no change	-0.71	4.09	inactive
9	USP15 (GeneID 9958)	no change	no change	-0.88	-0.7	inactive
10	JCHAIN (GeneID 3512)	no change	no change	-1.07	3.67	inactive
11	RNLS (GeneID 55328)	no change	no change	0.88	2.09	inactive
12	OR4K2 (GeneID 390431)	no change	no change	-0.31	-0.6	inactive
13	MMRN1 (GeneID 22915)	no change	no change	-0.1	-0.66	inactive
14	DGCR6 (GeneID 8214)	no change	no change	0.1	0.8	inactive
15	AHI1 (GeneID 54806)	no change	no change	0.4	1.15	inactive
16	RPL29 (GeneID 6159)	no change	no change	-1.03	3.96	inactive
17	HHIP (GeneID 64399)	no change	no change	-0.22	0.04	inactive
18	CYP4F3 (GeneID 4051)	no change	no change	-0.08	1.96	inactive
19	LAMTOR3 (GeneID 8649)	no change	no change	-0.34	0.79	inactive
20	MLLT11 (GeneID 10962)	no change	no change	0.66	-0.06	inactive
21	NMUR1 (GeneID 10316)	no change	no change	0.18	0.82	inactive
22	CHD7 (GeneID 55636)	no change	no change	1.37	-1.01	inactive
23	SLC35A4 (GeneID 113829)	no change	no change	-0.37	1.88	inactive
24	NPM2 (GeneID 10361)	no change	no change	-0.07	-0.1	inactive
25	CIB2 (GeneID 10518)	no change	no change	-0.84	-0.36	inactive
26	CEBPA (GeneID 1050)	no change	no change	0.1	0.47	inactive
27	GSKIP (GeneID 51527)	no change	no change	-2.3	0.8	inactive
28	ABCA3 (GeneID 21)	no change	no change	-0.28	-0.12	inactive
29	USP50 (GeneID 373509)	no change	no change	0.54	0.31	inactive
30	N4BP3 (GeneID 23138)	no change	no change	-0.16	-0.48	inactive
31	PLA1A (GeneID 51365)	no change	no change	-0.58	3.79	inactive
32	MAJIN (GeneID 283129)	no change	no change	0.16	0.18	inactive
33	VENTX (GeneID 27287)	no change	no change	0.4	-1.03	inactive

Only “viability robust z-score” (12 entries from above):
CHD7 (GeneID 55636) = 1.37
SLC35A4 (GeneID 113829) = -0.37
NPM2 (GeneID 10361) = -0.07
CIB2 (GeneID 10518) = -0.84
CEBPA (GeneID 1050) = 0.1
GSKIP (GeneID 51527) = -2.3
ABCA3 (GeneID 21) = -0.28
USP50 (GeneID 373509) = 0.54
N4BP3 (GeneID 23138) = -0.16
PLA1A (GeneID 51365) = -0.58
MAJIN (GeneID 283129) = 0.16
VENTX (GeneID 27287) = 0.4

More reagents follow:
no.	Gene	viability hit class	caspase hit class	viability robust z-score	caspase robust z-score	activity call
34	RABGEF1 (GeneID 27342)	no change	no change	1.01	0.68	inactive
35	SERPINA13P (GeneID 388007)	no change	no change	-0.3	-0.2	inactive
36	WDR11 (GeneID 55717)	no change	no change	-0.96	2.54	inactive
37	RAPGEF6 (GeneID 51735)	no change	no change	-1.76	3.11	inactive
38	RPL3L (GeneID 6123)	no change	no change	-0.45	-0.14	inactive
39	NIPAL3 (GeneID 57185)	no change	no change	0.16	-0.9	inactive
40	DNAAF6 (GeneID 139212)	no change	no change	-1.64	3.77	inactive
41	ZNF683 (GeneID 257101)	no change	no change	0.45	-0.04	inactive
42	RNF125 (GeneID 54941)	no change	no change	-0.8	0.9	inactive
43	SLC2A4RG (GeneID 56731)	no change	no change	-0.54	2.53	inactive
44	TTLL13 (GeneID 440307)	no change	no change	0.24	0.56	inactive
45	CPPED1 (GeneID 55313)	no change	no change	-0.06	-0.84	inactive
46	GFUS (GeneID 7264)	no change	no change	-0.85	0.6	inactive
47	SFMBT2 (GeneID 57713)	no change	no change	-0.11	-0.08	inactive
48	MYO1C (GeneID 4641)	no change	no change	0.02	0.2	inactive
49	SMC6 (GeneID 79677)	no change	no change	1.35	1.66	inactive
50	DNTT (GeneID 1791)	no change	no change	-0.58	-0.04	inactive
51	C1RL (GeneID 51279)	no change	CA2 (caspase activation)	-1.35	6.13	active
52	GRPR (GeneID 2925)	no change	no change	-0.88	-0.64	inactive
53	CYP3A5 (GeneID 1577)	no change	no change	1	2.38	inactive
54	BACE2 (GeneID 25825)	no change	no change	1.7	-0.1	inactive
55	GOLGA7 (GeneID 51125)	no change	no change	0.7	-0.9	inactive
56	AGXT (GeneID 189)	no change	no change	-0.58	4	inactive
57	MRPL48 (GeneID 51642)	no change	no change	0.44	1.94	inactive
58	RUNX1T1 (GeneID 862)	no change	no change	-0.8	1.9	inactive
59	TTC27 (GeneID 55622)	no change	no change	-0.76	-0.26	inactive
60	LCE2B (GeneID 26239)	no change	no change	0.66	1.24	inactive
61	SNUPN (GeneID 10073)	no change	no change	-0.11	3.09	inactive
62	GABRB3 (GeneID 2562)	no change	no change	0.28	5.09	inactive
63	GCSAM (GeneID 257144)	no change	no change	1.17	-0.23	inactive
64	CHMP4A (GeneID 29082)	no change	no change	-0.72	-0.01	inactive
65	TMEM255B (GeneID 348013)	no change	no change	-1.72	2.66	inactive
66	DDAH1 (GeneID 23576)	no change	no change	-0.48	0.09	inactive
67	ST8SIA2 (GeneID 8128)	no change	no change	-1.84	1.37	inactive
68	SPP1 (GeneID 6696)	no change	no change	0.9	0.44	inactive
69	GLDN (GeneID 342035)	no change	no change	0.2	-0.75	inactive
70	KIF26B (GeneID 55083)	no change	no change	-4.38	3.34	inactive
71	POLR1H (GeneID 30834)	no change	no change	-0.64	-0.04	inactive
72	LRRC14 (GeneID 9684)	RV2 (reduced viability)	no change	-3.49	3.08	active
73	MDM2 (GeneID 4193)	no change	no change	0.73	-0.18	inactive
